Binding data for four substances are collected here from PMC7293217, “TECPR1 promotes aggrephagy by direct recruitment of LC3C autophagosomes to lysosomes” (Nature Communications, 2020).

Chains of the proteins cited; added tags and fusions are not shown. Residues count along the entry.
UniProt Q9BXW4, residues 1-126: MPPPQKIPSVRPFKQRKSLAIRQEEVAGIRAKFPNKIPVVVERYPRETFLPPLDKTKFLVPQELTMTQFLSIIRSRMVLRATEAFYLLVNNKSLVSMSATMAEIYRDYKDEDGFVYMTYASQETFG
UniProt O95166: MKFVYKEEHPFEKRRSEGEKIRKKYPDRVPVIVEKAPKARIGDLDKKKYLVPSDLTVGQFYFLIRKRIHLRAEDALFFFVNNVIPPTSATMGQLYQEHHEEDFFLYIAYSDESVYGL
UniProt P60520: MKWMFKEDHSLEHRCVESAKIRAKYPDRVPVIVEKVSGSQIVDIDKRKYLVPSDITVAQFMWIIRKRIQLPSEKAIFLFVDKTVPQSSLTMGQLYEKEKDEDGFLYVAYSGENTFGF

No constants are given. Whether binding was seen depends on the method and setting. In cells and extracts the contact can be indirect. Here binding means that the protein was enriched with, or labelled near, the bait; the list need not be complete. For some assays here: A no says only that the protein was not detected with the bait. For some assays here: Sequences can lack the tags named with a protein.

In one assay the target is MycBioID-TECPR1 (human) (UniProt Q7Z6L1). Briefly: proximity labelling; BioID: HeLa TECPR1^KO cells cotransfected with MycBioID-TECPR1 (wt or W175A/I178A) and HA-tagged hATG8s, 50 uM biotin for 24 h, lysates precipitated with streptavidin beads, blot with anti-HA.
Assay [1] addresses T1, MycBioID-TECPR1^W175A/I178A (human) (UniProt Q7Z6L1).
T1 sequence: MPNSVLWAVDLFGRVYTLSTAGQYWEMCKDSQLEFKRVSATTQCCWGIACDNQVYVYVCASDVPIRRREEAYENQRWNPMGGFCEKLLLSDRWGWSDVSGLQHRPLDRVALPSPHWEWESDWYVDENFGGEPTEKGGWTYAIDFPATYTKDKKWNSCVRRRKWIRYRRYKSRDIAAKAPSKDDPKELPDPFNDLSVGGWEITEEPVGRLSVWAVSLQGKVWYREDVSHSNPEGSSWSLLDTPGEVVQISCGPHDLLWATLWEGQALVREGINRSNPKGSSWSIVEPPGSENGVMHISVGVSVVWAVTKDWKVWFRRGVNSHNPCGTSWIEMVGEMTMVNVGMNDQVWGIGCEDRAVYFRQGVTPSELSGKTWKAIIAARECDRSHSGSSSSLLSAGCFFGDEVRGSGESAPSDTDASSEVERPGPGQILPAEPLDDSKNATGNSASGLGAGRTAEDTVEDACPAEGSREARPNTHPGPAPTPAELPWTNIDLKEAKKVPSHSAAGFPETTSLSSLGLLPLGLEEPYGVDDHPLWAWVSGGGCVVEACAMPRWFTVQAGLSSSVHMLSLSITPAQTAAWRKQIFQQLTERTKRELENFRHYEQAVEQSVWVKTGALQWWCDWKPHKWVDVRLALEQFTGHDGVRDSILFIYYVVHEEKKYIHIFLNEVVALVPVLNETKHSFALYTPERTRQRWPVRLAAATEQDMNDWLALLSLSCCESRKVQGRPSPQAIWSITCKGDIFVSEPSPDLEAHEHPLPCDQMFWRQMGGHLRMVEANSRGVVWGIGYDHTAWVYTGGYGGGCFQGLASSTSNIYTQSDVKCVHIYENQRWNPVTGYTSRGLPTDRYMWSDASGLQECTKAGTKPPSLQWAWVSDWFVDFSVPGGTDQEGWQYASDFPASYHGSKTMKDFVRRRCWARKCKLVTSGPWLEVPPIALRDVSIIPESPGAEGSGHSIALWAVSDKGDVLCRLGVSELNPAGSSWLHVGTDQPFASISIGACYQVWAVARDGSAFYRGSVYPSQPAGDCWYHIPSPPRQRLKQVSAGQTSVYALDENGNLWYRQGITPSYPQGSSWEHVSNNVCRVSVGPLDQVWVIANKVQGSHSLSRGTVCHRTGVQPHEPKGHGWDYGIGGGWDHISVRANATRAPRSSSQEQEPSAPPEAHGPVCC
The description is as above.

On to HA-LC3A (from UniProt Q9H492 1-121), for which the binding entry with MycBioID-TECPR1 (human) is listed as “no binding”.

For HA-LC3C (from UniProt Q9BXW4 1-126), the binding entry with MycBioID-TECPR1 (human) is “binds”; in assay [1], “binds weakly”. As to HA-GABARAP (from UniProt O95166 1-117), the binding result with MycBioID-TECPR1 (human) is given as “no binding”. Still for that read-out and setting: then “HA-GABARAPL2 (from UniProt P60520 1-117)”, with “no binding”.
